Laboratory results from the supplement of paper PMC3334620.
The full ranking holds about 33,000 sequences; the median of “E-score (-0.5 to 0.5)” is about -0.0034, and the highest 2% start at about 0.25. This is one part of the list.

molecular target: T1, Yap3 (UniProt P38749); experiment: PBM E-score (8-mer binding enrichment) (E-score (-0.5 to 0.5)); higher = stronger / more preferred TF binding; conditions: protein concentration: 100 nM; construct: GST-full length
T1 sequence: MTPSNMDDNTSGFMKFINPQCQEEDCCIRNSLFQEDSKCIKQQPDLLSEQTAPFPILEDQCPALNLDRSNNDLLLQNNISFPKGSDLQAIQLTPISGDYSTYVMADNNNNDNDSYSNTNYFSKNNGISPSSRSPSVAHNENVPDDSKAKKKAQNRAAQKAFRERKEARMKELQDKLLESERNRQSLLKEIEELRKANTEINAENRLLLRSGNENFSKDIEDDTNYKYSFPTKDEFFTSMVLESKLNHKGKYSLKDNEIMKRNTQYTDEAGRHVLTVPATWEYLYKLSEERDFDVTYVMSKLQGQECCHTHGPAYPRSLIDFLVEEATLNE
Summary of the method: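 Detection of bound protein used fluorescent anti-GST, with scans normalised by masliner. The proteins were GST-tagged yeast transcription factors applied at about 100-200 nM to universal all-10-mer Agilent arrays made double-stranded by primer extension. Each ungapped eight-base word, pooled with its reverse complement, was scored with an E-score from the Universal PBM Analysis Suite.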

Sequence | PBM E-score
ATGTGGGG | -0.18
AGCTGTAG | -0.0431
AATGACTA | 0.201
AAGATGAT | 0.0727
CGACCGCA | -0.114
ACTATAAG | 0.136
GAGGTGGC | -0.136
GCCCCCAA | -0.168
ACATTGGT | 0.0185
GGTAGAAC | -0.107
AATCGACT | -0.0232
CTAGGAGC | -0.254
CAATAGCC | -0.0706
CAAAGAGG | 0.0523
GATTCATA | 0.116
GACACGAC | 0.217
ACGTGACT | -0.132
CCTCGCTC | 0.0543
TGGTTCAA | 0.0744
CCTAGCAA | 0.00301
CGTGCCTC | -0.141
TAAGGACA | 0.0825

Sequence | PBM E-score
GCACTTAC | 0.0227
GAACTGAA | 0.153
AGTCCGGC | -0.0711
ATCATATA | 0.206
CCACAATC | 0.0271
CTCCTATA | -0.191
CTGACACC | -0.174
ACAATGCT | -0.0138
ACGGACCA | 0.0968
ACATAGAG | -0.00586
CAGGAAGA | -0.0485
ACGTCTGA | 0.00171
TGGATTAA | 0.0534
GTGCTAAC | -0.0491
AATTTACC | 0.145
CTCCCGTA | -0.0808
AGCCGAAA | -0.0259
GGCTTGCA | -0.00273
CGCTGACA | 0.143
AACGGTAA | 0.192
ACTCCCGA | -0.0714
GTAGGGTA | 0.0833

Sequence | PBM E-score
GCTACTGA | -0.0544
CAGTGACC | -0.215
CCTGCAAA | -0.215
GAAAGAAA | 0.245
CTAGTCAC | 0.0325
CCGGGCTA | -0.336
TACAAGAA | 0.223
GTAAGCAC | -0.00674
AGCAACAC | 0.165
GGTCCACC | -0.329
AGTCTACG | -0.234
CAGGGTAG | -0.0458
AGCTATCA | 0.0643
GTCCAGAC | -0.241
ACACGCGC | -0.00267
CTAAGGCA | -0.201
AATCGTAG | 0.0131
CGTCCCAC | -0.0535
ATGCACCG | -0.17
AAAGAATT | 0.132
CCGCACAA | 0.0211
GAGTTGCA | -0.0745

Sequence | PBM E-score
CTCGAATA | -0.17
ATACGTGC | -0.0225
AACTACCC | -0.00275
GTTGACAA | 0.211
CACAGGTG | -0.0921
CTGCCCAA | -0.122
AGATTTAA | -0.00108
AAGGTAGA | -0.0248
GTGGCTCA | -0.158
CAACCATG | 0.104
AGCTTGAG | -0.182
CCGCGGCA | 0.135
AAAATCTG | 0.0665
TAGTAGCA | 0.0781
CGCTTCCC | -0.0785
ATCTGTGA | -0.00482
CGTATGAG | -0.0088
AAAGCACC | -0.0505
ATCTCCAG | -0.0176
GATGGGCA | 0.0495

At a glance, some entries already given:
Sequence | PBM E-score
CGCTTCCC | -0.0785
ATCTGTGA | -0.00482
